No constants are given. Whether binding was seen depends on the method and setting. In cells and extracts the contact can be indirect. Some binding calls cover weakened binding; strength is not graded here. Sequences can lack the tags named with a protein.
T1: Smc3(K198C)-PK6 (S. cerevisiae) (UniProt P47037)
T1 sequence: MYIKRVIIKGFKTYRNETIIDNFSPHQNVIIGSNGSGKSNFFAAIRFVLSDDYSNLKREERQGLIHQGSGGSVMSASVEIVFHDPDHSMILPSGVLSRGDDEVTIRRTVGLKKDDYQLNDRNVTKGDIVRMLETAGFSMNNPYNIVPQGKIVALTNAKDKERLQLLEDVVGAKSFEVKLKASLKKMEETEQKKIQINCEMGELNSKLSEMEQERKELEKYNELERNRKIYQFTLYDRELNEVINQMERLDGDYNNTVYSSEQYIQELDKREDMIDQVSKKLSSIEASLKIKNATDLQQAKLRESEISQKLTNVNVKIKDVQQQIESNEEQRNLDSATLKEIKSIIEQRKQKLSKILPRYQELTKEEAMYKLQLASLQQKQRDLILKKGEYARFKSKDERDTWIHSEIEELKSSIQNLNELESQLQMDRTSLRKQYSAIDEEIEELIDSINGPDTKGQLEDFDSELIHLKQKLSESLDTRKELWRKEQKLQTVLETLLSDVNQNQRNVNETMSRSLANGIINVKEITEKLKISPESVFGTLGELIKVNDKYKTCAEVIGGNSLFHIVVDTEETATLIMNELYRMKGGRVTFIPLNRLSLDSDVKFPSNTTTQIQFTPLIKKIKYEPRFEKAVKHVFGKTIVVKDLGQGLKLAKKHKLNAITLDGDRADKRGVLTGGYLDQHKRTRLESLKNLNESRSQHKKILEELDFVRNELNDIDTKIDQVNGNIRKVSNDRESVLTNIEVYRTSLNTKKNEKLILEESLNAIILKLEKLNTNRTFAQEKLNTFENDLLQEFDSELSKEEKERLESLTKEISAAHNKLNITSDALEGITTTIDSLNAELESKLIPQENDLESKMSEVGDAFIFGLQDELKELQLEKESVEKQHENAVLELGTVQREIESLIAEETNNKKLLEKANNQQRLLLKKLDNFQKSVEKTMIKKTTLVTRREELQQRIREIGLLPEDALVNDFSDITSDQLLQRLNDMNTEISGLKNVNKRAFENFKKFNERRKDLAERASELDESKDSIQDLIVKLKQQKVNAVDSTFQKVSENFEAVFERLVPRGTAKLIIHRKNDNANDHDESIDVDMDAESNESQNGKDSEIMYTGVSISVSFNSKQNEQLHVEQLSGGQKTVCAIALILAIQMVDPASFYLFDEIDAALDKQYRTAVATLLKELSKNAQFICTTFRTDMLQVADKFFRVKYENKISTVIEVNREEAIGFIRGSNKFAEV

T2: Smc3(R1222C) (S. cerevisiae) (UniProt P47037)
T2 sequence: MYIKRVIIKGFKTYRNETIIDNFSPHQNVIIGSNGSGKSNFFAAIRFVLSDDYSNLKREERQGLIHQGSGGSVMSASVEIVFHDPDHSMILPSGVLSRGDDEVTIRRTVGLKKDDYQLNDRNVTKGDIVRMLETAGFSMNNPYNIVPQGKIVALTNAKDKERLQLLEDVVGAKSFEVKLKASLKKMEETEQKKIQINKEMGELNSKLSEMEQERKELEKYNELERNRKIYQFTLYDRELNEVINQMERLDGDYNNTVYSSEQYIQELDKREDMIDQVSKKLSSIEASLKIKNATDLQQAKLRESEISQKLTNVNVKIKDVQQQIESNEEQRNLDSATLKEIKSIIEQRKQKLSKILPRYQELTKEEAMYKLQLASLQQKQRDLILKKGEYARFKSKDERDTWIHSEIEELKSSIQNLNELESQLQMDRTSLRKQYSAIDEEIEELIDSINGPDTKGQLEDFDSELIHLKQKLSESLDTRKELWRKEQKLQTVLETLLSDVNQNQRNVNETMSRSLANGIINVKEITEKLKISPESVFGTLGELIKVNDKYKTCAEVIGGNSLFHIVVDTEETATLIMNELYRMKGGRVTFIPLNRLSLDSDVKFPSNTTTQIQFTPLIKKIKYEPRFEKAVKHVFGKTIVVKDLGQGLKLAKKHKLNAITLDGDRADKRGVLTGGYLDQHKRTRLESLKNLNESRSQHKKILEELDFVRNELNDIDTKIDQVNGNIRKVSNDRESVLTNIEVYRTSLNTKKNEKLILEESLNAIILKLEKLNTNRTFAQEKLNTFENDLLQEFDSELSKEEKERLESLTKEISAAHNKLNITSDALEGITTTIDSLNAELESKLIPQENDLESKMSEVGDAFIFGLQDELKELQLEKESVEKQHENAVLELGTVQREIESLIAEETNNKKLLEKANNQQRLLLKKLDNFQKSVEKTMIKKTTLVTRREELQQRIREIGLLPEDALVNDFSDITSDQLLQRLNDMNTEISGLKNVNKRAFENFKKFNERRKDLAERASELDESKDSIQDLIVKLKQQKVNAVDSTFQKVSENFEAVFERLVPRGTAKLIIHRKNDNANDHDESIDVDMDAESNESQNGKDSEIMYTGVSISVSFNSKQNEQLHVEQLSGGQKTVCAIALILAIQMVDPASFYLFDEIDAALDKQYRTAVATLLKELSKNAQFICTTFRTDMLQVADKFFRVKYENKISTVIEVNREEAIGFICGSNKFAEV


How the values were obtained:
[1] = biological target: T1, Smc3(K198C)-PK6 (S. cerevisiae); test: cross-linking
[2] = biological target: T2, Smc3(R1222C) (S. cerevisiae); test: cross-linking

binding [1] | binding [2] | Binder
binds | – | Smc1(K201C)-myc9 (protein, UniProt P32908 1-1225) MGRLVGLELSNFKSYRGVTKVGFGESNFTSIIGPNGSGKSNMMDAISFVLGVRSNHLRSNILKDLIYRGVLNDENSDDYDNEGAASSNPQSAYVKAFYQKGNKLVELMRIISRNGDTSYKIDGKTVSYKDYSIFLENENILIKAKNFLVFQGDVEQIAAQSPVELSRMFEEVSGSIQYKKEYEELKEKIEKLSKSATESICNRRRIHGELKTYKEGINKNEEYRKQLDKKNELQKFQALWQLYHLEQQKEELTDKLSALNSEISSLKGKINNEMKSLQRSKSSFVKESAVISKQKSKLDYIFKDKEKLVSDLRLIKVPQQAAGKRISHIEKRIESLQKDLQRQKTYVERFETQLKVVTRSKEAFEEEIKQSARNYDKFKLNENDLKTYNCLHEKYLTEGGSILEEKIAVLNNDKREIQEELERFNKRADISKRRITEELSITGEKLDTQLNDLRVSLNEKNALHTERLHELKKLQSDIESANNQEYDLNFKLRETLVKIDDLSANQRETMKERKLRENIAMLKRFFPGVKGLVHDLCHPKKEKYGLAVSTILGKNFDSVIVENLTVAQECIAFLKKQRAGTASFIPLDTIETELPTLSLPDSQDYILSINAIDYEPEYEKAMQYVCGDSIICNTLNIAKDLKWKKGIRGKLVTIEGALIHKAGLMTGGISGDANNRWDKEEYQSLMSLKDKLLIQIDELSNGQRSNSIRAREVENSVSLLNSDIANLRTQVTQQKRSLDENRLEIKYHNDLIEKEIQPKITELKKKLDDLENTKDNLVKEKEALQNNIFKEFTSKIGFTIKEYENHSGELMRQQSKELQQLQKQILTVENKLQFETDRLSTTQRRYEKAQKDLENAQVEMKSLEEQEYAIEMKIGSIESKLEEHKNHLDELQKKFVTKQSELNSSEDILEDMNSNLQVLKRERDGIKEDIEKFDLERVTALKNCKISNINIPISSETTIDDLPISSTDNEAITISNSIDINYKGLPKKYKENNTDSARKELEQKIHEVEEILNELQPNARALERYDEAEGRFEVINNETEQLKAEEKKILNQFLKIKKKRKELFEKTFDYVSDHLDAIYRELTKNPNSNVELAGGNASLTIEDEDEPFNAGIKYHATPPLKRFKDMEYLSGGEKTVAALALLFAINSYQPSPFFVLDEVDAALDITNVQRIAAYIRRHRNPDLQFIVISLKNTMFEKSDALVGVYRQQQENSSKIITLDLSNYAE
– | binds | Smc1(D1164E, N1192C)-HA (protein, UniProt P32908 1-1225) MGRLVGLELSNFKSYRGVTKVGFGESNFTSIIGPNGSGKSNMMDAISFVLGVRSNHLRSNILKDLIYRGVLNDENSDDYDNEGAASSNPQSAYVKAFYQKGNKLVELMRIISRNGDTSYKIDGKTVSYKDYSIFLENENILIKAKNFLVFQGDVEQIAAQSPVELSRMFEEVSGSIQYKKEYEELKEKIEKLSKSATESIKNRRRIHGELKTYKEGINKNEEYRKQLDKKNELQKFQALWQLYHLEQQKEELTDKLSALNSEISSLKGKINNEMKSLQRSKSSFVKESAVISKQKSKLDYIFKDKEKLVSDLRLIKVPQQAAGKRISHIEKRIESLQKDLQRQKTYVERFETQLKVVTRSKEAFEEEIKQSARNYDKFKLNENDLKTYNCLHEKYLTEGGSILEEKIAVLNNDKREIQEELERFNKRADISKRRITEELSITGEKLDTQLNDLRVSLNEKNALHTERLHELKKLQSDIESANNQEYDLNFKLRETLVKIDDLSANQRETMKERKLRENIAMLKRFFPGVKGLVHDLCHPKKEKYGLAVSTILGKNFDSVIVENLTVAQECIAFLKKQRAGTASFIPLDTIETELPTLSLPDSQDYILSINAIDYEPEYEKAMQYVCGDSIICNTLNIAKDLKWKKGIRGKLVTIEGALIHKAGLMTGGISGDANNRWDKEEYQSLMSLKDKLLIQIDELSNGQRSNSIRAREVENSVSLLNSDIANLRTQVTQQKRSLDENRLEIKYHNDLIEKEIQPKITELKKKLDDLENTKDNLVKEKEALQNNIFKEFTSKIGFTIKEYENHSGELMRQQSKELQQLQKQILTVENKLQFETDRLSTTQRRYEKAQKDLENAQVEMKSLEEQEYAIEMKIGSIESKLEEHKNHLDELQKKFVTKQSELNSSEDILEDMNSNLQVLKRERDGIKEDIEKFDLERVTALKNCKISNINIPISSETTIDDLPISSTDNEAITISNSIDINYKGLPKKYKENNTDSARKELEQKIHEVEEILNELQPNARALERYDEAEGRFEVINNETEQLKAEEKKILNQFLKIKKKRKELFEKTFDYVSDHLDAIYRELTKNPNSNVELAGGNASLTIEDEDEPFNAGIKYHATPPLKRFKDMEYLSGGEKTVAALALLFAINSYQPSPFFVLDEVDAALEITNVQRIAAYIRRHRNPDLQFIVISLKCTMFEKSDALVGVYRQQQENSSKIITLDLSNYAE

— publication doi:10.1101/495762 (bioRxiv, 2018)
